These are yes or no findings as the source states them, for the method shown. In cells and extracts the contact can be indirect. Some results given as binding are weak or reduced against the parent protein; the word gives no strength.

Sequences of proteins named here, by UniProt entry; tags and fusion partners are left off.
UniProt Q96GY3: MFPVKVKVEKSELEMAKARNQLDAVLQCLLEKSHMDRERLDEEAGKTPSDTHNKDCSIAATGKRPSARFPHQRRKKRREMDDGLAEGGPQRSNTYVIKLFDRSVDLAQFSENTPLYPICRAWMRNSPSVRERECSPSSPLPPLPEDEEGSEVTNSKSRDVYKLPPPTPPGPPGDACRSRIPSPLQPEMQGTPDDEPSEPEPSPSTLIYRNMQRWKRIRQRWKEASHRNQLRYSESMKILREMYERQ
UniProt P10244: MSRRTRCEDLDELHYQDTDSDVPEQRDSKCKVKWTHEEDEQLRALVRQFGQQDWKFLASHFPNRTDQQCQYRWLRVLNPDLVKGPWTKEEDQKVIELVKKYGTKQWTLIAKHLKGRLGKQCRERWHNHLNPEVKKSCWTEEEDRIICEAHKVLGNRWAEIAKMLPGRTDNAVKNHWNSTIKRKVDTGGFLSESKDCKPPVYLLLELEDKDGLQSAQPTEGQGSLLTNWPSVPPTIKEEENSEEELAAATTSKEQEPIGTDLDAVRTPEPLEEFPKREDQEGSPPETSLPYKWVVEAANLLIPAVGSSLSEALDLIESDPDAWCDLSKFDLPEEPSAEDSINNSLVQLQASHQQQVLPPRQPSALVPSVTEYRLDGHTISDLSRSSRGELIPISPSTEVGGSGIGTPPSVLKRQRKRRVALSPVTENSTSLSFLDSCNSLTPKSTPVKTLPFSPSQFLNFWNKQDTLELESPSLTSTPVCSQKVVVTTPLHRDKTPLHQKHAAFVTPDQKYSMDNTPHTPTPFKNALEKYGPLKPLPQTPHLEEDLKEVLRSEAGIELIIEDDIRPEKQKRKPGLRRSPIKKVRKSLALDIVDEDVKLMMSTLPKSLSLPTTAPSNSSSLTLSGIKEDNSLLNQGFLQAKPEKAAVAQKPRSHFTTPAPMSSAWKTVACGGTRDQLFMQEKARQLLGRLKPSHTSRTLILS
UniProt Q5TKA1: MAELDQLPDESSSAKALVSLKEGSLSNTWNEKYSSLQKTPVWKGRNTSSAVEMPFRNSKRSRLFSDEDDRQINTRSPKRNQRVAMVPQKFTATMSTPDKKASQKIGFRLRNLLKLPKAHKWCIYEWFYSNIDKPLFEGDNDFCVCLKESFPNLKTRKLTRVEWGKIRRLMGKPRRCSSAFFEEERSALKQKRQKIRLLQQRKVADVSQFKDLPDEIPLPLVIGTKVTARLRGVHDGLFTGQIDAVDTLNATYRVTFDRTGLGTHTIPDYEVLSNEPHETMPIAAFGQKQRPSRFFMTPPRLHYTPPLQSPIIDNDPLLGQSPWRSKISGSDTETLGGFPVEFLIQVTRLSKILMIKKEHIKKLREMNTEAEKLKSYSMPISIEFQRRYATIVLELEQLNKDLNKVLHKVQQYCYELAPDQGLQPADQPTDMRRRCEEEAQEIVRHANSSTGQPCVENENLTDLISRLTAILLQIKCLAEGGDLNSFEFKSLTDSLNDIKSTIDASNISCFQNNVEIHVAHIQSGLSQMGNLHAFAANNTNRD
UniProt Q08999: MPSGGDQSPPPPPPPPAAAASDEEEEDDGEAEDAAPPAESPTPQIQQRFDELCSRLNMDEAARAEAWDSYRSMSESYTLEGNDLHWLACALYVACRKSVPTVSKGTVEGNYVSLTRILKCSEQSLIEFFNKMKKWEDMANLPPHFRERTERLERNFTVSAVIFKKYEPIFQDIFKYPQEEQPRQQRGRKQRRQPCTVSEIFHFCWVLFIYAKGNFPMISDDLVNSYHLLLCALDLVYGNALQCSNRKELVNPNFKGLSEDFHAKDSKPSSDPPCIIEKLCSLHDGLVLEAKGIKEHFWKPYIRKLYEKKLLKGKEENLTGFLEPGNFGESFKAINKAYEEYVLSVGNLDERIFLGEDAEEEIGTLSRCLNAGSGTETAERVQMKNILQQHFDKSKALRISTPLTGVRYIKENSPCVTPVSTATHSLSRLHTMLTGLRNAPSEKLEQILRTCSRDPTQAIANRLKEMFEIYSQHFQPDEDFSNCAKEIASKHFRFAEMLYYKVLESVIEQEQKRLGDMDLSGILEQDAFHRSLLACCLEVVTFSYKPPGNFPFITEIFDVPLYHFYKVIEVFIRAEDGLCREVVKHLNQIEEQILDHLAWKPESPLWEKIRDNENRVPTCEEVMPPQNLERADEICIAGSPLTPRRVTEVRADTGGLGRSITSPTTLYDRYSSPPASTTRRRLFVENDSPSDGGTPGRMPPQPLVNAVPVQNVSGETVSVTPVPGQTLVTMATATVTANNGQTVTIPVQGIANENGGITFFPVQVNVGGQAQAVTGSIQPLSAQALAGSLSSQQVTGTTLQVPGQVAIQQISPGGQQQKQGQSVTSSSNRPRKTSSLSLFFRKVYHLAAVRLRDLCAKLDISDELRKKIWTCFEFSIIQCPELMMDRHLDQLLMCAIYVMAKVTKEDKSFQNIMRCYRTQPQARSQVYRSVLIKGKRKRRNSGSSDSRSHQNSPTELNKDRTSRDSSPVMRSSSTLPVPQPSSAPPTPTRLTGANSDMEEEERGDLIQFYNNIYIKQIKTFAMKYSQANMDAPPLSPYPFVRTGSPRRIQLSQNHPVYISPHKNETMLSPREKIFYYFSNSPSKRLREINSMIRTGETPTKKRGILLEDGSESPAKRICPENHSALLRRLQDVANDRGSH

In one assay the target is LIN37 (human (endogenous in SKOV3 and BJ-hTERT)) (UniProt Q96GY3). Kind of assay: co-IP.
Consider “HA-FLAG-B-Myb (from UniProt P10244 1-700)”, for which the binding result is “binds”.

With LIN9 (from UniProt Q5TKA1 1-542), the binding result is on record as “binds”. Take LIN52-V5 (from UniProt Q52LA3 1-112): the binding result is given as “binds”.

“endogenous LIN52 (from UniProt Q52LA3 1-112)”: the binding entry is “binds”. With p130 (from UniProt Q08999 1-1139), the binding result is “binds”.

The target is the same in a further assay. Kind of assay: co-IP. The source holds these as a separate data set.
Take p130 (from UniProt Q08999 1-1139): the binding entry was “binds”.
